Screening data, single-dose tests

Amino acid sequences for entries named in this document (tags omitted). Residues count along the entry.
UniProt P9WFT3, whole entry: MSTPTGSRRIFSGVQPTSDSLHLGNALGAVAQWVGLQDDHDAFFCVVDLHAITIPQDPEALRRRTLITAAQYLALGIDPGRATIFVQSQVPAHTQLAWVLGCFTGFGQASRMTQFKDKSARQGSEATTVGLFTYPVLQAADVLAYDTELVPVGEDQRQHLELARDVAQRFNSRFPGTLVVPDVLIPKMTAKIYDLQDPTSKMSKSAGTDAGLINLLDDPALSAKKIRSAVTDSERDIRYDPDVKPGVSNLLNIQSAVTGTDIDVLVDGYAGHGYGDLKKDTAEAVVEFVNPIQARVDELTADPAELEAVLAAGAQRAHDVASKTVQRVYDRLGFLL
UniProt P9WPC5, whole entry: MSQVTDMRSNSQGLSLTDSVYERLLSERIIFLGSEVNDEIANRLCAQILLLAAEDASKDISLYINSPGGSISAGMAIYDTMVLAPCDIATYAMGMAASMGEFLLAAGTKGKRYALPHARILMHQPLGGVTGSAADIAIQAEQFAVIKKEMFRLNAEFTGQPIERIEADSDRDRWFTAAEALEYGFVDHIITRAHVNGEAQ
UniProt P9WPC3, whole entry partner: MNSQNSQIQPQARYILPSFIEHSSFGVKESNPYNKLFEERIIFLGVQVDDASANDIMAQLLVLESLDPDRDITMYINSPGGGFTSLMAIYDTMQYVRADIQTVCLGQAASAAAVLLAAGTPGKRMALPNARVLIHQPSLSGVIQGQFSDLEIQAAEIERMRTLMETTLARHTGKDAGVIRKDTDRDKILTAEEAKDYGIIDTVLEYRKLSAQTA
UniProt Q4DA54, 1-478: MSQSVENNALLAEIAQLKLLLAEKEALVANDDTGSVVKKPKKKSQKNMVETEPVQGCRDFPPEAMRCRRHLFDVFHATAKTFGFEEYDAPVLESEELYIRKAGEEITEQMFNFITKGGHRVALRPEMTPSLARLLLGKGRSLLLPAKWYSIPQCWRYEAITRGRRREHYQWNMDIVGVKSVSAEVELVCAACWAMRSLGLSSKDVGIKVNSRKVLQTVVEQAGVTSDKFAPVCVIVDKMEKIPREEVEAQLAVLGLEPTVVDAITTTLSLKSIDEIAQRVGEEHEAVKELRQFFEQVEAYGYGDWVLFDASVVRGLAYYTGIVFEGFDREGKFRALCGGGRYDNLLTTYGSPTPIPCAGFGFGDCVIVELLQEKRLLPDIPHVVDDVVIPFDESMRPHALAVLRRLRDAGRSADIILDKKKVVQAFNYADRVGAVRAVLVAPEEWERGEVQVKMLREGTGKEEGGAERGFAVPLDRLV

MtTrpRS: 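Enzyme assay of tryptophanyl-tRNA synthetase; the read-out is not stated. Target: Tryptophan-tRNA ligase, Mycobacterium tuberculosis (UniProt P9WFT3). Concentration: 10 µM. Higher most likely means stronger inhibition; the record gives no direction and few retests gave an IC50. About 65,000 compounds were tested under these conditions; 0.098% (about 64) showed 50% or more at least once.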
ClpP1P2: 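ClpP1P2, Mycobacterium tuberculosis (UniProt P9WPC5 and UniProt P9WPC3). Protease assay of ClpP1P2, read by the AMC dye that it sets free. Compounds at 50 µM. Higher reads as stronger inhibition, judged from the few compounds that gave an IC50. Most other retested compounds had strongly negative values. About 69,000 compounds were tested under these conditions; 0.015% (about 10) showed 50% or more at least once.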
TcHisRS: 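Enzyme assay of histidyl-tRNA synthetase; the read-out is not stated. Target: Histidine-tRNA ligase, Trypanosoma cruzi CL Brener (UniProt Q4DA54). Compounds at 30 µM. The record gives no direction; compounds that gave an IC50 in retests scored well above the rest, so higher reads as stronger inhibition. About 69,000 compounds were tested under these conditions; 0.045% (about 31) showed 50% or more at least once.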

Values are the deposited “Percent Effect”, in %. The record does not define 0% and 100%; most values in the screen are far below 50% and negative numbers occur (in some assays of this library far below -100). Compounds were drawn at random from those tested, without regard to their results. A dash means the value is not listed here; it may have been measured.

SMILES | MtTrpRS | ClpP1P2 | TcHisRS
CC(c1ccccc1)N(C)C(=O)CN1CCCc2cc(F)cc(F)c21 (stereo not given) | 1.87 | 5.824 | 0.5236
CN(C)C(=O)c1cncnc1-c1ccc(CNC(=O)C2CC2)cc1 | 1.319 | 1.915 | 2.273
O=C1CC2(CCSC2)C(=O)N1CCCc1ccccc1 (stereo not given) | -4.499 | 1.263 | 2.02
COc1ccccc1CC1CCCN(CC(=O)NC2CC2)C1 (stereo not given) | 0.7323 | -19.03 | -0.8403
Cc1cccc(COC[C@]23COC[C@H]2CN(C(=O)c2ccsc2)C3)n1 | -3.94 | -2.84 | 3.743
Cc1nccn1CCCC(=O)N1CCC(Nc2cccnn2)CC1 | 5.869 | 2.116 | 1.504
CCCc1nnc(N2CCC(N3CCCCCC3)CC2)o1 | -0.3631 | -6.035 | 12.73
Cc1occc1C(=O)N1Cc2nccn2CC(CN(C)C)C1 (stereo not given) | -3.26 | -6.702 | 4.082
Cc1nn(C)c(C)c1OCC(=O)NCC(O)c1ccccc1F (stereo not given) | 0.8189 | -10.83 | 6.383
O=C1CC2(CCN(Cc3ccncc3)C2)CN1c1ccc2c(c1)OCO2 (stereo not given) | -3.662 | 16.09 | -4.132
O=C(c1ccnc(-n2cnnc2)c1)N1CCCC2(CCNC2)C1 (stereo not given) | 0.4105 | -5.219 | 14.29
CC(=O)N1CCC(c2nnc3ccc(C(=O)NC(C)C)cn23)C1 (stereo not given) | -2.196 | 1.311 | 3.448
O=C(c1ccc[nH]1)N1C[C@H]2CN(Cc3cccc(F)c3)C(=O)[C@H]2C1 | -3.4 | 11.48 | 2.762
O=C1CC2(CCN(C(=O)c3ccccn3)C2)Nc2ccccc2N1 (stereo not given) | -3.025 | 12.69 | -0.5917
CCC(C)N1Cc2c(C(=O)N3CCOCC3)nn(C)c2C1 (stereo not given) | - | 1.739 | 4.233
Cc1cccc(C(=O)N2CCCN(Cc3cnn(C)c3)CC2)n1 | 0.9651 | 1.045 | -0.7634
O=C(c1c(O)cnc2ccccc12)N1CCN(CC(F)F)CC1 | -5.02 | -17.24 | 10.5
O=c1cc(CN2CC[C@H]3CC[C@@H](C2)N3)c2cccc3c2n1CCC3 | 10.42 | -5.041 | 3.077
c1cc(NCc2cscn2)cc(OCCN2CCCCC2)c1 | -3.091 | -9.665 | 4.516
Cc1cnn(C2CN(CCOc3cccc(C#N)c3)C2)c1 | -0.9524 | -5.028 | 0.8929
COC(=O)N1CCC(CNC(=O)C2CCN(S(C)(=O)=O)CC2)CC1 | 1.93 | -2.007 | 12.02
COc1ccc(C)cc1-c1[nH]c2ccccc2c1C(=O)O | -2.679 | -12.84 | -39.64
OC1(CN2CCCCC2)CCN(c2cccc(C(F)(F)F)n2)C1 (stereo not given) | -10.65 | -4.396 | 8.458
O=C(NC1CCN(C(=O)C2CCCCC2)C1)c1ccncc1Cl (stereo not given) | -2.88 | -6.432 | 3.96
Cc1noc(C)c1CN1C(=O)[C@H]2CC[C@@H]1CN(Cc1nccs1)C2 | -3.047 | 2.183 | 0
CCN(Cc1c(F)cccc1F)C(=O)c1ccncc1O | -1.051 | -0.15 | 5.263
C[C@@H]1CN(C2CCN(Cc3cnc(-c4cccs4)nc3)CC2)C[C@H](C)O1 | -3.974 | 7.011 | 11.45
CC(C)N1CCCC1c1cc(CCO)[nH]n1 (stereo not given) | -1.382 | 8.577 | 2.273
Cc1csc(CCCNC(=O)NC2CC(=O)N(C(C)(C)C)C2)n1 (stereo not given) | 1.874 | -1.89 | 3.191
Cc1nc(CNCc2ccc(OC34CCCN(CC3)C4)cc2)n[nH]1 (stereo not given) | 0.9084 | -8.21 | 9.045
O=C1COc2cc(S(=O)(=O)NCCC3=CCCCC3)c(Br)cc2N1 | -3.027 | 9.895 | 4.348
CCN(C(=O)CN1CCCC1c1cc(C)no1)c1ccccc1C (stereo not given) | -1.728 | -7.45 | 4.762
Cc1c[nH]c(C2COCCN2C(=O)c2ccc(=O)[nH]n2)n1 (stereo not given) | -9.952 | 15.64 | 6.818
O=C(CCCOc1ccccc1)N1CCCC1Cn1cccn1 (stereo not given) | -4.475 | -7.707 | 2.89
CCn1cc(CN2CCC(O)(Cn3nc(C)ccc3=O)CC2)cn1 | - | 0.5112 | 5.319
CN1C(=O)CC(C(=O)O)C12CCN(Cc1cc(F)ccc1Cl)CC2 (stereo not given) | -5.236 | -7.167 | -1.093
CS(=O)(=O)N1CCCC(C(=O)N2CCOc3ccccc32)C1 (stereo not given) | -3.665 | -0.2801 | 7.229
O=C(CNC(=O)Nc1c(F)cccc1Oc1ccccc1)NC1CC1 | 3.01 | 1.128 | 1.961
Cc1occc1C(=O)N1CCC[C@]2(C[C@@H](OCc3ccccn3)CO2)C1 | 1.564 | 1.608 | 11.76
O=C(O)C1(Cc2ccccc2Cl)CCN(c2ncccn2)CC1 | 0.6156 | 7.162 | 2.326
O=C(NCc1ccc(Cl)cc1Cl)NCC1(O)CCSC1 (stereo not given) | -4.545 | 2.478 | 8.387
Cc1nccc(N2CCCC2CCNS(C)(=O)=O)n1 (stereo not given) | 2.42 | -12.58 | 2.632
CN(C)c1cnn(Cc2nc3ccccc3n2C)c(=O)c1 | -3.446 | -1.113 | 5.473
Cc1noc(C)c1-c1nc(C2CCCN(C(=O)CN)C2)ccc1CO (stereo not given) | -3.646 | -9.786 | -1.429
COC(=O)CNC(=O)c1c(-n2cnnn2)sc2c1CCCC2 | 1.898 | -12.58 | 0
CN(C)c1nc2n(c(=O)n1)CCN2C(=O)Nc1ccc(Cl)cc1 | -4.534 | -1.184 | 5.752
NCC1CCCCN1C(=O)Cc1ccc(F)c(F)c1 (stereo not given) | 5.498 | 1.656 | 5.172
COc1ccc(CN2CCO[C@H]3CN(C(=O)C4CC4)CC[C@H]3C2=O)cc1 | -2.545 | -0.07146 | -0.6452
O=C(Cn1ccc2ncccc2c1=O)N1CCSCC1 | 1.727 | -3.057 | 14.81
Cc1ccc(CN2CC[C@H]3O[C@@H](C(=O)N4CCCO4)CC[C@H]32)s1 | -2.116 | -3.548 | 7.843
Cc1ccc(CN(CCN(C)C)Cc2ncc[nH]2)s1 | -2.171 | -26.66 | -1.932
COCc1nc2n(n1)CCCC2Nc1nc(C)ns1 (stereo not given) | 1.916 | -11.96 | 3.448
CCC[C@H]1CN(Cc2cscn2)C[C@@H]1NC(=O)C1(COC)CCC1 | -0.1032 | -5.221 | 0
CC(C)N1[C@H](Cn2cncn2)C[C@@H]2CN(Cc3cccs3)CC[C@@H]21 | -1.717 | -4.062 | -1.031
Cc1nc2c(c(NC(C)C)n1)CCN(Cc1cccnc1)CC2 | 2.607 | -0.9891 | 11.83
COCC1CC2(CCN(Cc3cnn(C)c3)CC2)CN1c1ncccn1 (stereo not given) | 0.7457 | 0.5606 | -0.8368
Cc1ccsc1C(O)CNC(=O)Cc1ccc(S(=O)(=O)C(C)C)cc1 (stereo not given) | -0.9889 | -12.26 | 0
Cc1nc(C2CCNC2)nc2c1CCC(=O)N2C (stereo not given) | -4.561 | -18.99 | 4.545
Cc1cc(C)c(CNC(=O)C2COc3ccccc3C2)c(=O)[nH]1 (stereo not given) | 1.519 | 8.056 | 8.333
Cc1noc(C)c1CN1CCN(CC2CC2)c2ncccc2C1 | 2.115 | -1.846 | 9.29
CC(C)c1noc(CS(=O)(=O)CC(=O)NCC(F)(F)F)n1 | -5.924 | -0.9358 | 1.734
CC(=O)N1CC[C@H]2[C@H](C[C@@H](Cn3cncn3)N2c2nccs2)C1 | -3.004 | -5.292 | 7.362
COC(=O)CNC(=O)CCc1cc(Cl)cs1 | -1.231 | 1.371 | 6.667
O=C(NCc1ccco1)N(CCCO)C1CCCc2ccccc21 (stereo not given) | 7.917 | -33.08 | 5.187
O=C(c1cc(=O)n(-c2ccccc2)[nH]1)N1CCOCC(O)C1 (stereo not given) | -1.926 | 3.059 | 0.8
COc1ccc(C(=O)N2CCCC(NC(=O)C(C)C)C2)c(O)c1 (stereo not given) | -0.04732 | 9.208 | 4.298

The values are deposited in ChEMBL (CHEMBL3988442, “University of Dundee, Small-Polar-MMV Screening Library” (2021)).